Reference: publication PMC11146434
Construct, isoform or probe ends are uncertain for at least one entry. Whether high values mean tight binding is not given here for every scale.

By UniProt entry, the sequences of proteins in these tests, tags left out. Residues count along the entry.
UniProt Q13148, 1-269: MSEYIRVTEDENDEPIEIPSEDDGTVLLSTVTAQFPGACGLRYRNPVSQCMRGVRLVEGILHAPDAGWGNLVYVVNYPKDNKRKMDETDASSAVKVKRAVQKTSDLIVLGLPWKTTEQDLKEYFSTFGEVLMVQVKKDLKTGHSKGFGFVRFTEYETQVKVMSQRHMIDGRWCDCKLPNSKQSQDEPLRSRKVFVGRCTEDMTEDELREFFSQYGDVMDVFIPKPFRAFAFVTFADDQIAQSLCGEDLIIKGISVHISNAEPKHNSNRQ

Target: His-TDP-43 1-269 (human) (UniProt Q13148)
Test: SPR competition
Details: 10 mM Tris pH 8.0, 150 mM NaCl, 2 mM MgCl2, 0.05% Tween-20, 1 uM BSA, 30 min pre-incubation at room temperature, SPR at 22 C (stated for the protein-protein SPR), recombinant protein, residues 1-269, protein details: N-terminal 6xHis (pQE30), label: 3' biotin

Which results are given for “GUGUGUGAAUGAAUAAA [3'-biotinylated RNA oligo]”?
binding signal (% of signal without NF242) (100 nM TDP-43 1-269 pre-incubated with 1 uM His-MBP-RGNEF 1-275 (NF242), ~10% reduction): 90; binding signal (% of signal without NF242) (100 nM TDP-43 1-269 pre-incubated with 10 uM His-MBP-RGNEF 1-275 (NF242), ~50% reduction): 50
